This assay in a line: qHTS Assay for Lipid Storage Modulators in Drosophila S3 Cells.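 On cell number change: cells counted by Cell Tracker Red CMTPX staining in the red channel.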 The settings on record: BODIPY lipid droplet fluorescence, 18-24 h; for cell number change: measured here: cell count max response, cells fed with added oleic acid. An outline of the steps: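 Drosophila S3 cells got compounds at several concentrations plus oleic acid (400 uM solution). Laser-scanning cytometry with 488 nm excitation read lipid droplets at 500-530 nm and cells at 575-640 nm. Percent activity was relative to 20 uM Triacsin C.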

Where [1] appears, read: measured here: cell number channel AC50, cells fed with added oleic acid.
Setting [2] is: measured here: lipid fluorescence (Fed channel) AC50, cells fed with added oleic acid.

Some of the results follow. Shown are side measurements of this screen, not its main read-out; they come without a call. The list favours compounds with an active or inconclusive main result. Potencies come from curve fits of mixed quality, noted in brackets.

Consider `Cc1ccccc1Sc1ncnc2onc(C)c12`, for which the cell number change was -87.5%. Besides, under setting [1], the AC50 – broadly, the concentration giving half of the maximal activity seen – is 23.1 µM [falling, partial curve]. For `Cc1ccccc1NC(=O)C1CCCN(S(=O)(=O)c2ccc3c(c2)C(C)(C)C(=O)N3C)C1` (stereo unspecified), the cell number change is -7.49%. Further, under setting [2], the AC50 is 5.8 µM [rising, single point].

As for `COCCn1nnnc1C(c1cc2cc(C)ccc2[nH]c1=O)N1CCCCCC1` (stereo unspecified), the cell number change was determined as 18.5%. The AC50 under setting [1] was 0.82 µM [rising, partial curve, poor fit].

`CC(C)C[C@@H](CC#N)N1CCN(CCc2ccccc2)CCC1=O`: the cell number change turned out to be 10.5%. Further, the AC50 under setting [2] is 20.6 µM [falling, single point]. Consider `NC(=O)Cc1nc2scc(-c3ccc(Cl)cc3)c2c(=O)[nH]1`, for which the cell number change came out at 40.8%. Further, the AC50 under setting [1] was 2.31 µM [falling, partial curve]. On to `Cc1ccc(NC(=O)/C(=C\c2ccco2)NC(=O)c2ccco2)cc1`, for which the cell number change is 3.95%. The AC50 under setting [2] is 35.5 µM [rising, single point]. For the compound `COc1ccc(C(=O)NC(=S)NCc2cccnc2)cc1Cl`, the cell number change was found to be 51.3%. Also, the AC50 under setting [1] is 16.4 µM [rising, partial curve, poor fit]. In addition, under setting [2], the AC50 is 5.62 µM [falling, single point].

Regarding `COc1ccc(/C=N/NC(=O)Cc2n[nH]c(=O)[nH]c2=O)cc1`, the cell number change was -12.1%. Also, the half-maximal activity concentration (AC50) under setting [2] is 20.6 µM [rising, single point].

For the compound `C/C(=N\NC(=O)C1(C)CC1(Br)Br)c1cccc(NC(=O)C2CCC2)c1` (stereo unspecified), the AC50 under setting [2] was 2.06 µM [rising, partial curve, poor fit]. In the case of `Cc1ncc(S(=O)(=O)c2ccccc2)c(-c2ccccc2Cl)n1`, the cell number change amounted to 15.2%. For the compound `COCCNC(=O)COc1ncnc2scc(-c3ccc(F)cc3)c12`, the cell number change was -35.1%. For the same compound, the AC50 under setting [1] is 11.6 µM [falling, partial curve, poor fit]. For `CCCOc1ccc(-c2c(C(=O)N/N=C(\C)c3ccncc3)nnn2-c2nonc2N)cc1`, the cell number change was -21.2%. In addition, the AC50 under setting [1] was 0.00517 µM [falling, full curve, poor fit]. The AC50 under setting [2] was 4.61 µM [falling, full curve]. Turning to `CC1CCCCC1NC(=O)CSc1nnc(CN2CCOCC2)n1C` (stereo unspecified), the cell number change is -27%. Also, the AC50 under setting [2] was 23.1 µM [falling, partial curve]. As for `CC1CCN(c2nc3ccccn3c(=O)c2C=O)CC1`, the cell number change is 17.8%. The AC50 under setting [2] is 0.58 µM [falling, full curve, poor fit]. As to `COCc1ccc(CN2CCC(CO)(CC3CCCCO3)CC2)o1` (stereo unspecified), the cell number change is -1.75%. Moreover, the AC50 under setting [1] is 7.31 µM [falling, partial curve, poor fit].

For `Cc1ccnc(SCc2cn3c(C)cccc3n2)n1`, the cell number change is -4%. For the compound `O=C(NCc1ccncc1)c1cc2ccccc2nc1Cl`, the cell number change turned out to be 50%. For the same compound, the AC50 under setting [1] is 29.1 µM [rising, single point]. For the same compound, the AC50 under setting [2] is 0.461 µM [rising, single point]. Consider `Cc1ccc(NC(=O)c2c(C)noc2-c2snnc2C)cc1`, for which the cell number change was determined as 4.65%. Also, the AC50 under setting [1] is 0.00461 µM [rising, full curve, poor fit]. Also, under setting [2], the AC50 was 0.00461 µM [rising, full curve]. For `O=C(Nc1nc2ccccc2[nH]1)c1ccccc1`, the AC50 under setting [2] is 5.8 µM [rising, single point]. As to `CCN(C(=O)CSc1nnnn1-c1cc(C)ccc1OC)C1CCS(=O)(=O)C1` (stereo unspecified), the cell number change came out at 3.33%. Under setting [2], the AC50 was 5.8 µM [rising, single point]. Consider `CC(=O)Nc1ccc(NC(=O)c2nc(S(=O)(=O)Cc3cccc(C)c3)ncc2Cl)cc1`, for which the cell number change amounted to 19.8%. In addition, under setting [2], the concentration at half-maximal activity (AC50) is 3.66 µM [falling, full curve]. For `Cc1ccc(S(=O)(=O)c2cc(OC(=O)c3ccco3)ccc2OC(=O)c2ccco2)cc1`, the cell number change was -35.4%. The AC50 under setting [1] is 6.51 µM [falling, partial curve]. Moreover, the AC50 under setting [2] was 5.17 µM [falling, full curve, poor fit]. As for `CCc1ccccc1NC(=O)c1ccc2snnc2c1`, the cell number change stood at 24.9%. For the same compound, the AC50 under setting [2] was 29.1 µM [rising, single point]. Turning to `COc1ccc(N2CCN(C(=S)Nc3ccc(OC)cc3OC)CC2)cc1`, the cell number change came to 12.9%. Consider `S=c1[nH]ncn1/N=C/c1ccc(N2CCOCC2)cc1`, for which, under setting [2], the half-maximal activity concentration (AC50) is 6.51 µM [rising, single point]. For `COc1ccc(S(=O)(=O)N2CCCC2CNC(=O)C(=O)NCc2cccs2)cc1` (stereo unspecified), the cell number change is -19.2%. Moreover, the AC50 under setting [2] was 18.4 µM [falling, single point].

`Oc1cc(OCc2ccccc2)ccc1-c1[nH]ncc1-c1ccccc1`: the cell number change was -59.4%. For the same compound, under setting [2], the concentration at half-maximal activity (AC50) is 25.9 µM [falling, single point].

Take `O=C(Nc1ccc2c(c1)OCO2)N1CCN(c2ccccc2)CC1`: the cell number change was 3.66%.

As to `CCOc1ccc(C(=O)NC(=S)N(Cc2ccccc2)Cc2ccccc2)cc1`, the cell number change was -29.2%. Under setting [2], the AC50 is 8.2 µM [falling, partial curve]. As for `Cc1cc(OCCCC(=O)NCCN2C(=O)S/C(=C\c3cccnc3)C2=O)ccc1Cl`, the cell number change turned out to be 51.5%. Also, the AC50 under setting [1] was 4.61 µM [rising, full curve]. Besides, under setting [2], the AC50 is 29.1 µM [falling, single point]. Consider `Cc1nnc(NC(=O)C2CCN(S(=O)(=O)c3cc([N+](=O)[O-])ccc3Cl)CC2)o1`, for which the cell number change is -3.81%. For the same compound, the AC50 under setting [2] was 0.00517 µM [rising, full curve, poor fit]. As for `COc1ccc(CCN2CC(C(=O)NCc3ccco3)CC2=O)cc1OC` (stereo unspecified), the cell number change was 1.57%. In addition, under setting [2], the AC50 was 4.61 µM [falling, partial curve, poor fit].

Take `O=[N+]([O-])c1ccccc1/C=N\N1CCN(Cc2ccccc2Cl)CC1`: the cell number change was -9.84%. As to `NC1=NC2(CCC(c3ccccc3)CC2)n2c(nc3ccccc32)N1` (stereo unspecified), the cell number change is 39%. Moreover, under setting [1], the AC50 was 0.411 µM [rising, full curve, poor fit]. Further, under setting [2], the AC50 was 0.259 µM [rising, full curve, poor fit]. On to `CC(Sc1nnc(Cc2cccs2)n1C1CCCCC1)C(=O)NCc1ccco1` (stereo unspecified), for which the cell number change was -3.44%. The AC50 under setting [2] was 6.51 µM [rising, single point]. Turning to `COc1ccc(/C(C)=N/NC(=O)c2nnn(-c3nonc3N)c2-c2ccccc2)cc1`, the cell number change stood at 183%. Also, the AC50 under setting [1] was 25.9 µM [rising, partial curve]. For the compound `O=C(c1ccc(-c2ccccc2Cl)o1)N1CCN(c2ccccc2O)CC1`, the cell number change is -20.9%. Take `COc1ccc(COc2ccsc2C(=O)Nc2ccc(Cl)cc2)cc1`: the cell number change is 1.56%. On to `CC1CCC2(CC1)NC(=O)N(CC(=O)Nc1ccc3[nH]c(=O)[nH]c3c1)C2=O` (stereo unspecified), for which the cell number change was -23.8%. In addition, the AC50 under setting [1] is 0.82 µM [falling, full curve, poor fit]. Under setting [2], the AC50 is 0.82 µM [falling, full curve]. With `CCC(C)C(NC(=O)C1CCC(C)CC1)C(=O)NCc1ccccn1` (stereo unspecified), the cell number change was -23.4%. Also, under setting [1], the AC50 was 4.11 µM [falling, partial curve, poor fit].

For the compound `COc1ccc(CCNC(=O)CSc2nnc(CNC(=O)c3cc(OC)c(OC)c(OC)c3)o2)cc1OC`, the cell number change was found to be 5.38%. The AC50 under setting [2] was 0.58 µM [falling, single point]. Take `O=C(Cn1cnnn1)Nc1cccc(S(=O)(=O)N2CCCCC2)c1`: the cell number change is 8.77%. `COc1ccc(N2CCN(C(=S)Nc3ccc(F)cc3)CC2)cc1`: the cell number change amounted to 6.57%. Under setting [2], the AC50 is 20.6 µM [rising, single point].

With `O=C(CN(Cc1ccccc1)S(=O)(=O)c1ccccc1)N/N=C/c1ccc2c(c1)OCO2`, the cell number change came to 14.8%. Moreover, under setting [2], the AC50 is 0.731 µM [rising, full curve, poor fit]. `O=C(CC1C(=O)NCCN1C(=O)c1ccc(Cl)cc1)Nc1ccc(F)cc1` (stereo unspecified): the cell number change worked out at 19.4%. Further, the AC50 under setting [2] is 6.51 µM [rising, single point]. As to `O=C(O)CSc1nnc(CNc2ccc(F)cc2)n1-c1ccccc1`, the cell number change is -38.7%. Further, the AC50 under setting [1] is 16.4 µM [falling, single point]. Also, under setting [2], the AC50 was 18.4 µM [falling, single point].

With `CCOC(=O)c1sc(NC(=O)CSc2nc(-c3ccco3)cc(C(F)(F)F)n2)c(C#N)c1C`, the cell number change came out at 111%. The AC50 under setting [1] is 0.291 µM [rising, single point]. Also, the AC50 under setting [2] was 0.58 µM [rising, single point].

As to `O=C(NC1CCCC1)C(c1c(F)cccc1Cl)N(C(=O)c1csnn1)C1CC1` (stereo unspecified), the AC50 under setting [2] was 20.6 µM [falling, partial curve]. In the case of `O=C(Nc1ncccn1)C1CCCCC1`, under setting [2], the AC50 was 29.1 µM [rising, single point]. As to `O=C(Nc1cc(Cl)cc(Cl)c1)c1cccnc1`, the cell number change came to 1.09%. Moreover, the AC50 under setting [2] was 0.103 µM [falling, full curve, poor fit]. `CCCN1C(=O)/C(=N\OCC(=O)NC23CC4CC(CC(C4)C2)C3)c2ccccc21`: the cell number change was -54.3%. The AC50 under setting [1] is 7.31 µM [falling, partial curve]. The AC50 under setting [2] was 3.66 µM [falling, full curve]. Consider `Cc1ccc(O)c(NC(=O)c2cc(C)no2)c1`, for which the cell number change turned out to be 7.21%. For the compound `CS(=O)(=O)c1ccc(Cl)c(NC(=O)COC(=O)CCCN2C(=O)c3cccc4cccc(c34)C2=O)c1`, the cell number change came to 14.5%. As for `CCOc1ccc(/C=N/NC(=O)c2nnn(-c3nonc3N)c2COc2ccc(F)cc2)cc1`, the cell number change was -1.09%. Further, the AC50 under setting [2] is 0.103 µM [rising, full curve, poor fit]. `CCc1nc2ccc(C(=O)N3CCN(c4cccc(C)c4C)CC3)cc2nc1CC`: the cell number change came to 38.5%. Under setting [1], the AC50 was 11.6 µM [rising, partial curve]. Also, under setting [2], the AC50 is 29.1 µM [rising, single point]. As to `COCCn1c(=O)c2c(nc3n2CCCN3CCc2ccccc2)n(C)c1=O`, the cell number change is -0.704%. Turning to `Cc1cccc(C(C)C)c1NC(=O)c1cccnc1`, the cell number change is 18.6%. Also, the AC50 under setting [2] was 14.6 µM [falling, partial curve]. For `O=[N+]([O-])c1c(NCCO)cc(Sc2nc3ccccc3s2)c2nonc12`, the cell number change was -71.4%. The AC50 under setting [1] was 13 µM [falling, partial curve]. The half-maximal activity concentration (AC50) under setting [2] was 18.4 µM [falling, partial curve]. Regarding `CCOC(=O)c1cc(CC)sc1NC(=O)COc1ccc2c(C)cc(=O)oc2c1`, the cell number change is -67.9%. For the same compound, under setting [1], the AC50 was 29.1 µM [falling, single point]. Besides, the AC50 under setting [2] is 4.61 µM [rising, partial curve, poor fit].

The values are drawn from PubChem BioAssay AID2685 (National Center for Advancing Translational Sciences (NCATS), 2010).
